Results as given in PMC3815135.
Results are given in words; binding and its absence hold for the method and conditions named.

Protein sequences, listed by entry. Tags and fused reporters are not part of them. Lines headed by an entry give the natural chain unless they say otherwise; changes in a name come on top.
UniProt P55980: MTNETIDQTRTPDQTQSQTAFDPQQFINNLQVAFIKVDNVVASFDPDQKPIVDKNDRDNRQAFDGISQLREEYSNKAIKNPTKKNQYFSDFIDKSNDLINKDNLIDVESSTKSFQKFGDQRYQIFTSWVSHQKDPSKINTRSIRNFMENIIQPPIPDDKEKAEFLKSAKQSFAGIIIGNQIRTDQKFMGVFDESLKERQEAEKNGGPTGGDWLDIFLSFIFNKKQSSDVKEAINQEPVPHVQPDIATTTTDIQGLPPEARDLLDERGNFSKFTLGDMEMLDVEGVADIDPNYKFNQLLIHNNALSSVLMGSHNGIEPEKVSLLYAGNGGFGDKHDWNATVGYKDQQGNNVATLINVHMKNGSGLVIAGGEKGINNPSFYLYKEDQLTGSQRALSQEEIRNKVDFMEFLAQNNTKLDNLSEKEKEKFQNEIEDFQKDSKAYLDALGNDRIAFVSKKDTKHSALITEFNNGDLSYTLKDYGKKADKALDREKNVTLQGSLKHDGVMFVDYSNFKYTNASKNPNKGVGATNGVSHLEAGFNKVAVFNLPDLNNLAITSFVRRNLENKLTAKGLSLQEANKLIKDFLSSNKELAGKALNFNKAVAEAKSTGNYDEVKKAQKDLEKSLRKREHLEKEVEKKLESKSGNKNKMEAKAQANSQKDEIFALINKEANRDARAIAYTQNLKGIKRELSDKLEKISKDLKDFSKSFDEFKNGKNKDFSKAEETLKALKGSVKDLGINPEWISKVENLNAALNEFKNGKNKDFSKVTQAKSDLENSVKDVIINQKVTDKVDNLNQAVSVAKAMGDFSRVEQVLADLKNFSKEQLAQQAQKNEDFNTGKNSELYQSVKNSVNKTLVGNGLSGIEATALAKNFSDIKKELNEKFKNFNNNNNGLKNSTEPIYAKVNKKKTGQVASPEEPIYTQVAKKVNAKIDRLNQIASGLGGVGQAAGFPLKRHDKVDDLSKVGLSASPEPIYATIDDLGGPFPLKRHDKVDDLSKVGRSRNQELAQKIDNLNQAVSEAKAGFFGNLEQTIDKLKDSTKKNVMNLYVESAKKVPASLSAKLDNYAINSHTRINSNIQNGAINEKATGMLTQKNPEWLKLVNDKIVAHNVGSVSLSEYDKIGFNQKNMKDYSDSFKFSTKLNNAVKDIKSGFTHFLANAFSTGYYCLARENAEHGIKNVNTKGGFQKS

What was measured:
Experiment in all cases: SEC-MALS; Superdex 200 10/300 in buffer D (30 mM NaAc pH 4.6, 200 mM NaCl), 0.4 ml/min; 50 µl of protein at 5-7 mg/ml loaded; in-line MALS, refractive index and QELS detectors; both purified
[1] = biological target: CagA EPIYA-repeats domain, residues 893-1001 (H. pylori strain 26695) (UniProt P55980)
[2] = biological target: CagA N-terminal domain, residues 22-234 (H. pylori strain 26695) (UniProt P55980)
[3] = biological target: CagA middle domain stable core fragment, residues 267-807 (H. pylori strain 26695) (UniProt P55980)
[4] = biological target: CagA middle domain, residues 257-880 (H. pylori strain 26695) (UniProt P55980)

CagA EPIYA-repeats domain, residues 893-1001 (from UniProt P55980 893-1001) (domain or fragment)
binding [1]: no binding (tested: 5-7 mg/ml)

CagA N-terminal domain, residues 22-234 (from UniProt P55980 22-234) (domain or fragment)
binding [2]: no binding (tested: 5-7 mg/ml)

CagA middle domain stable core fragment, residues 267-807 (from UniProt P55980 267-807) (domain or fragment)
binding [3]: no binding (tested: 5-7 mg/ml)

CagA middle domain, residues 257-880 (from UniProt P55980 257-880) (domain or fragment)
binding [4]: no binding (tested: 5-7 mg/ml)
